3 molecules from paper PMC4962041 can be followed below.

Protein sequences, listed by entry. Tags and fused reporters are not part of them. Residues count along the entry.
UniProt Q15843, residues 1-76: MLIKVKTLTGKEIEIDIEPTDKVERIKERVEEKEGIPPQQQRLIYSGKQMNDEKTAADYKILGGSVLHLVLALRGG

Results are given in words; binding and its absence hold for the method and conditions named.

Test [1] concerns the target T1, hDdi2 UBL domain (residues 1-76) (human) (UniProt Q5TDH0).
T1 sequence: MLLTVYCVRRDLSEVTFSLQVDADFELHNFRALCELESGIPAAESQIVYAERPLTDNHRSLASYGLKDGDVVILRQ
The experiment in a line: NMR titration; 15N-labelled hDdi2 UBL (0.1 mM) with peptide to a final concentration of 1.9 mM; 50 mM sodium phosphate, pH 7.4, 25 °C; both purified.

Another test deals with human ubiquitin (human) (UniProt P0CG48). The experiment in a line: NMR titration; 15N-labelled UBQ (0.1 mM) with unlabelled peptide; 15N/1H-HSQC chemical shift perturbation; 50 mM sodium phosphate, pH 6.0 and pH 7.4, 25 °C; 1:1 model for the Kd; both purified.
The next test deals with Nedd8 (UniProt Q15843). The experiment in a line: NMR titration; NMR chemical shift perturbation experiments with Nedd8 (expressed 15N-labelled); details in the Supplementary Information; both purified.

In the case of AELEQIAEDALEKEDSQEAA (C-terminal amide) [hDdi2-scrambled UIM peptide], the binding entry (in test [1]; with human ubiquitin (human)) was “no binding (tested: 1.9 mM)” throughout.

Take EEIADQELAEALQKSAEDAE (C-terminal amide) [hDdi2-UIM peptide]: the binding result in test [1] is recorded as “no binding (tested: 1.9 mM)”; with Nedd8, “no binding”.

B1: hDdi2 UBL domain (residues 1-76) (domain or fragment, UniProt Q5TDH0 1-76)
chain: MLLTVYCVRRDLSEVTFSLQVDADFELHNFRALCELESGIPAAESQIVYAERPLTDNHRSLASYGLKDGDVVILRQ
As for B1, the binding entry with Nedd8 is given as “no binding”.
